# Reference: PubChem BioAssay AID1347426 (Functional Genomics Laboratory (NCATS/FGL), 2020)
# In all, about 31,000 sequences went through this assay and about 1,400 (4.5%) were called active.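 How the source made its calls: active means median seed-adjusted z-score above 1 or below -1; inactive means the rest.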 Some of the results follow.
# Assay: Novel Modifiers of Survival Motor Neuron (SMN) Protein: Gene Identification via Genome-wide siRNA Screen;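 further: luminescence tracks full-length SMN protein made from the SMN2 reporter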
# Conditions: HEK293T SMN2-luciferase reporter, siRNA knockdown, 72 h; actives lie on both sides
# Method in brief: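 HEK293T cells stably expressing an SMN2 splicing/cDNA-luciferase reporter were reverse-transfected with a druggable-genome siRNA library and read by luminescence at 72 hours; hits defined by MAD score above 1.0 or below -1.0.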
row,Sequence,median seed-adjusted z-score
1,GCUGCUGCCUAUGCUGCUATT against SDSL,inactive: 0
2,GAACUUAAUAGUACCCUUUTT against NR0B1,inactive: -0.526
3,GCAUUCUAUUAGACUAUGATT against FSD2,inactive: 0.359
4,CCUCAAUUGUUGCUUAUCUTT against ZDHHC17,inactive: 0.526
5,GCCUUCUUCUUAUGCAAGATT against ACTL6B,inactive: 0.0703
6,CCACGUCUCUGGAAUCAUUTT against POLH,inactive: -0.446
7,CCAGGUUUAUGUAGAAGUUTT against NMI,inactive: 0.982
8,GCCUUACCCUGGACUAUGATT against LRP4,inactive: -0.00798
9,AGAUUACGUUGAAGAACGATT against GNGT1,inactive: -0.0382
10,GACGGAAAGACUUACGUUATT against EIF2AK2,inactive: 0.419
11,CUCUAGACUGGGAAACUAATT against ZNF2,inactive: -0.119
12,GGAGUACCCUGAGGCUAUATT against RELA,inactive: -0.646
13,CCAGUUGCAUAAUUAUGGATT against HOXA5,inactive: 0
14,GGAAGCUCAUGUACCUGCATT against OBP2B,inactive: -0.642
15,CUUUGAUACUGAUUCUCUATT against HTR1E,inactive: 0.00535
16,CUAUGGAAGUAUUUCCGAATT against DGAT2L6,inactive: -0.528
17,AGCACGAGCUAGUCCCUGATT against POLR2E,active: -1.25
18,GGAGGUACUUUGGAUGACATT against BBX,inactive: -0.0824
19,CCACCUAGAUGAUAAUGAATT against ACTR5,inactive: -0.376
20,GACUGGAUCCAAAAGAACATT against CHST3,inactive: 0.319
21,ACUGGACAGUGGUAUCAGATT against UBASH3A,active: -1.1
22,GGCUAAGGCUAUGGACAAATT against CYP4B1,inactive: -0.663
23,GAGGAUCACUUGUCCAAAUTT against IL1RAP,inactive: -0.23

row,Sequence,median seed-adjusted z-score
1,GGAUGACGUGAUACUCAAUTT against TTLL4,inactive: -0.256
2,GUGUGUUCACAAAAUGAAATT against MAF,inactive: -0.418
3,GCACGAGAGCAGAAGGAAATT against RCAN3,inactive: 0.544
4,GAGUCACAGUCGUUAUUCUTT against CNOT4,inactive: -0.116
5,GAGAAUAACUAAACAUUGUTT against MBNL2,inactive: -0.675
6,AAACAGACAGAGAUAAGUATT against UBE2D3,active: 1.62
7,GGUAUAUUUCCAUACUGAUTT against NFS1,inactive: 0.141
8,GCAGUACUCUGCUACCUGATT against IL22RA1,active: -1.14
9,CACGGAAGGUUGUGAUGAATT against TLR5,inactive: 0
10,GGAUCAAGCUGAUGAACGATT against ABCC1,inactive: 0
11,GGACGGAAGAUUUUCGUAUTT against SR140,active: 1.16
12,GGAACUCCCUCGAAAGGCUTT against GALNTL1,inactive: -0.234
13,CGGACACGGCUAUAGAGGATT against NUBP1,inactive: -0.0975
14,CAUGGAAGCUGACCACAUATT against PFAS,inactive: 0.0344
15,CGAGUAUGAUCCUACCAGATT against ESR1,inactive: -0.408
16,GAUAUGUAUUCAUACUAAUTT against SNX10,inactive: 0.391
17,CAGAAGGAAUACUAACAGATT against DIS3L2,inactive: -0.265
18,CCAAGGACCAGGAGAUUCATT against HOMER3,inactive: 0.148
19,GAACGACUGAGACGGCUAATT against SNAPIN,inactive: -0.132
20,UCACCACACUUAAGGAGAATT against BIK,inactive: 0.0492
21,GGAGGGCUACUAUGAGUUUTT against CAMK1G,inactive: -0.358
22,CCUUCAAGGUCAACGUGUATT against KCNH3,inactive: -0.509
23,CGCCCACCUUUAUCCUCUATT against TNK1,inactive: -0.727

# Rewritten as tab-separated lines: part of the list above
row	Sequence	median seed-adjusted z-score
1	GGAUGACGUGAUACUCAAUTT against TTLL4	inactive: -0.256
4	GAGUCACAGUCGUUAUUCUTT against CNOT4	inactive: -0.116
7	GGUAUAUUUCCAUACUGAUTT against NFS1	inactive: 0.141
9	CACGGAAGGUUGUGAUGAATT against TLR5	inactive: 0
11	GGACGGAAGAUUUUCGUAUTT against SR140	active: 1.16
12	GGAACUCCCUCGAAAGGCUTT against GALNTL1	inactive: -0.234
13	CGGACACGGCUAUAGAGGATT against NUBP1	inactive: -0.0975
14	CAUGGAAGCUGACCACAUATT against PFAS	inactive: 0.0344
16	GAUAUGUAUUCAUACUAAUTT against SNX10	inactive: 0.391
17	CAGAAGGAAUACUAACAGATT against DIS3L2	inactive: -0.265
21	GGAGGGCUACUAUGAGUUUTT against CAMK1G	inactive: -0.358
22	CCUUCAAGGUCAACGUGUATT against KCNH3	inactive: -0.509
23	CGCCCACCUUUAUCCUCUATT against TNK1	inactive: -0.727

# Further results follow:

row,Sequence,median seed-adjusted z-score
1,GCGCAUCACUGACUGCUAUTT against CD248,inactive: -0.0191
2,GAACAGAUCCUAUGAGCGATT against PGCP,inactive: 0.145
3,CACAGAUUCGAGAAAUUCATT against SF3B1,active: -3.65
4,GCAUUGAUCCUCAGAGUAATT against PTPRU,inactive: 0
5,GGAUUAAACAGAUCAGAGATT against PDSS2,inactive: 0.111
6,CCCGUAUCAUGAUCCACCATT against CLPP,inactive: -0.118
7,GGAAGUGUUUGUAAUCCCATT against ALPP,inactive: 0
8,AGCAACUUCUCUACCCUGATT against EPHX1,inactive: 0
9,GGUCACAGGUUUUAUGGGATT against CHST13,inactive: -0.447
10,ACGUGAUCCAAAUAUCCAATT against LEP,inactive: -0.143
11,GAUCAUAACUGGAAUAAGATT against HIATL1,inactive: 0.327
12,GGGUAAGACUAAAUCUGUATT against CRH,inactive: 0.64
13,GCCUUUACAAGGUCCACAATT against ZNF595,inactive: 0.102
14,GCUAUUCACCGUCAGCAUATT against MLF2,inactive: -0.312
15,GACCUGAUGUGGACCCAGATT against MIOX,inactive: 0.14
16,GAAAGUCUGUGAGAAGCUATT against KCTD8,inactive: 0.0212
17,CAAUCGGUACAGCUCCAAATT against CLCNKA,inactive: -0.398
18,GGCUGUACACUACAACGGUTT against EPB42,inactive: -0.294
19,GAACAACCUGGAGAAAUAUTT against ENDOG,inactive: -0.336
20,GCCUUAAGGAUGAAGAUAATT against FOXR2,inactive: 0.593
21,GCAAAACGACGAUCAUUAATT against ARL6,inactive: 0.442
22,GCUGAGGUCUAAGGACAUATT against ARHGAP30,inactive: 0.0946
23,AGAUCGUUUCUACCCUCUUTT against ALG3,inactive: -0.446
